{
  "sequences": {"note": "Sequences of proteins named here, by UniProt entry; tags and fusion partners are left off.", "UniProt P38936": "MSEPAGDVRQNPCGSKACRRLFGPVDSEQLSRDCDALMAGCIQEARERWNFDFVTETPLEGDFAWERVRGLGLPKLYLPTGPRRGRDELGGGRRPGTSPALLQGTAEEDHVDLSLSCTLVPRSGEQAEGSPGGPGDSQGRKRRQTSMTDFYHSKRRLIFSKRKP", "UniProt P30279": "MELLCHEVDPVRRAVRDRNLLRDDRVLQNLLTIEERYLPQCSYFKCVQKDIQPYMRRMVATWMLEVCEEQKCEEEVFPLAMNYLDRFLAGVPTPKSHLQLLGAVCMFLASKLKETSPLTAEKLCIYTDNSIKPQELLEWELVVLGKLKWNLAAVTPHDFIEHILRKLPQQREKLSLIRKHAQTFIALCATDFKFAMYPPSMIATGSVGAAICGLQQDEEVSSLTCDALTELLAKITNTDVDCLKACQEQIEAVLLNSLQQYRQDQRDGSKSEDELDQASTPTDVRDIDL"},
  "source": "paper PMC4991798",
  "key": {"[1]": {"molecular_target": "p21 (endogenous, GM-CSF macrophages) (human (endogenous in primary monocyte-derived macrophages)) (UniProt P38936)", "test": "co-IP; endogenous proteins in GM-CSF differentiated primary macrophages; lysate incubated with anti-cyclin D2 or anti-p21 antibody (or rabbit IgG) overnight at 4°C, then Sepharose 1-2 h; immunoblot"}, "[2]": {"molecular_target": "Flag-tagged p21 (UniProt P38936)", "test": "co-IP; HEK293T cells transfected with Flag-p21; lysate (1% Triton X-100 lysis buffer) incubated with anti-Flag M2 agarose overnight at 4°C; immunoblot of endogenous partners"}, "[3]": {"molecular_target": "cyclin D2 (endogenous, GM-CSF macrophages) (human (endogenous in primary monocyte-derived macrophages)) (UniProt P30279)", "test": "co-IP; endogenous proteins in GM-CSF differentiated primary macrophages; lysate incubated with anti-cyclin D2 or anti-p21 antibody (or rabbit IgG) overnight at 4°C, then Sepharose 1-2 h; immunoblot"}, "[4]": {"molecular_target": "HA-tagged Cyclin D2 (UniProt P30279)", "test": "co-IP; HEK293T cells transfected with HA-tagged cyclin D2; lysate (1% Triton X-100 lysis buffer) incubated with anti-HA agarose overnight at 4°C; immunoblot of endogenous partners"}},
  "note": "These are yes or no findings as the source states them, for the method shown. In cells and extracts the contact can be indirect. Some binding calls cover weakened binding; strength is not graded here.",
  "data": [
    {"substance": "cyclin D2 (endogenous, GM-CSF macrophages) (from UniProt P30279 1-289)", "values": [
      {"measurement": "binding", "setting": "[1]", "value": "binds"}
    ]},
    {"substance": "cyclin D2 (endogenous, HEK293T) (from UniProt P30279 1-289)", "values": [
      {"measurement": "binding", "setting": "[2]", "value": "binds"}
    ]},
    {"substance": "p21 (endogenous, GM-CSF macrophages) (from UniProt P38936 1-164)", "values": [
      {"measurement": "binding", "setting": "[3]", "value": "binds"}
    ]},
    {"substance": "p21 (endogenous, HEK293T) (from UniProt P38936 1-164)", "values": [
      {"measurement": "binding", "setting": "[4]", "value": "binds"}
    ]}
  ]
}
